PubChem BioAssay AID1053208 – Peter MacCallum Cancer Centre – 2014
In all, the deposit lists about 17,000 reagents; shown is a part drawn at random. 788 of all reagents (4.7%) were called active. 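Calls rest on z-score classes alone; an extra cut-off of viability at most 70% of control was not applied to them.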 A number with no mark means an inactive call.

Purpose: 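Genes whose silencing cuts survival of bone tumour cells only with doxorubicin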 (primary screen)
Cell system: mouse osteosarcoma cells, early-passage culture from an engineered mouse model of fibroblastic bone tumour
Reagents: siRNA pool against mouse genes, 40 nM
Timing: about 120 h (48 h before drug, then 72 h with drug)
Treatment: doxorubicin 100 nM for 72 h, roughly 30-40% inhibitory dose
Read-out: 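Viability read as ATP luminescence after 72 h of 100 nM doxorubicin or none, duplicate wells averaged, scaled to non-targeting siRNA, then expressed as robust z-scores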
Direction: viability z-score with doxorubicin and doxorubicin viability vs non-targeting: higher = more viable cells under doxorubicin; viability z-score without drug: higher = more viable cells with knock-down alone; z-score of drug to no-drug ratio: higher = less drug sensitisation by knock-down
Active means: 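a pool counts as active when its viability z-score with doxorubicin is -2 or below and its z-score without drug lies between -2 and 2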

Gene,combined z-score class,viability z-score with doxorubicin,viability z-score without drug,z-score of drug to no-drug ratio,doxorubicin viability vs non-targeting
Sytl1 (synaptotagmin-like 1),no change with or without drug,0,0.84,-0.45,0.94
Chrd (chordin),no change with or without drug,0.11,0.17,0.11,0.95
Zbtb8a (zinc finger and BTB domain containing 8a),no change with or without drug,0.45,-0.51,1.01,0.98
Or5a3 (olfactory receptor family 5 subfamily A member 3),no change with or without drug,-0.22,-1.69,1.12,0.92
1700025G04Rik (RIKEN cDNA 1700025G04 gene),no change with or without drug,-0.9,1.52,-1.69,0.86
Brd3 (bromodomain containing 3),no change with or without drug,0.56,0.34,0.45,0.99
"Onecut1 (one cut domain, family member 1)",no change with or without drug,1.35,0.51,1.12,1.06
N4bp2l1 (NEDD4 binding protein 2-like 1),no change with or without drug,-0.45,0.51,-0.67,0.9
Zbtb3 (zinc finger and BTB domain containing 3),high cell count without drug only,0.9,2.19,-0.45,1.02
Stard8 (StAR related lipid transfer domain containing 8),no change with or without drug,-1.57,0.84,-2.02,0.8
"Orc4 (origin recognition complex, subunit 4)",no change with or without drug,-0.34,1.85,-1.35,0.91
Pmm1 (phosphomannomutase 1),no change with or without drug,0,0.17,0,0.94
Sp3 (trans-acting transcription factor 3),no change with or without drug,0.9,0.34,0.79,1.02
Ggt6 (gamma-glutamyltransferase 6),no change with or without drug,0.67,0.84,0.22,1
Cd200r1 (CD200 receptor 1),no change with or without drug,-0.56,-1.01,0.22,0.89
Srpk2 (serine/arginine-rich protein specific kinase 2),no change with or without drug,1.12,0.17,1.12,1.04
Dlg1 (discs large MAGUK scaffold protein 1),no change with or without drug,1.57,0,1.8,1.08
Pcdha5 (protocadherin alpha 5),no change with or without drug,-1.12,-1.18,-0.34,0.84
Fbxo46 (F-box protein 46),no change with or without drug,-0.56,1.01,-1.12,0.89
"Crybb3 (crystallin, beta B3)",no change with or without drug,0.67,0.84,0.22,1
Hjurp (Holliday junction recognition protein),no change with or without drug,0,-0.84,0.67,0.94
Gata3 (GATA binding protein 3),no change with or without drug,-1.12,-1.52,0,0.84
Ppan (peter pan homolog),no change with or without drug,1.46,1.01,0.9,1.07

Ordered by “viability z-score with doxorubicin” (descending): 7 of the entries above.
Gene,combined z-score class,viability z-score with doxorubicin,viability z-score without drug,z-score of drug to no-drug ratio,doxorubicin viability vs non-targeting
Dlg1 (discs large MAGUK scaffold protein 1),no change with or without drug,1.57,0,1.8,1.08
Srpk2 (serine/arginine-rich protein specific kinase 2),no change with or without drug,1.12,0.17,1.12,1.04
"Crybb3 (crystallin, beta B3)",no change with or without drug,0.67,0.84,0.22,1
Hjurp (Holliday junction recognition protein),no change with or without drug,0,-0.84,0.67,0.94
Fbxo46 (F-box protein 46),no change with or without drug,-0.56,1.01,-1.12,0.89
Pcdha5 (protocadherin alpha 5),no change with or without drug,-1.12,-1.18,-0.34,0.84
Gata3 (GATA binding protein 3),no change with or without drug,-1.12,-1.52,0,0.84

Next entries:
Gene,combined z-score class,viability z-score with doxorubicin,viability z-score without drug,z-score of drug to no-drug ratio,doxorubicin viability vs non-targeting
"Vmn2r30 (vomeronasal 2, receptor 30)",no change with or without drug,-1.35,-1.18,-0.56,0.82
Ropn1l (ropporin 1-like),no change with or without drug,0,-1.18,1.01,0.94
Dctpp1 (dCTP pyrophosphatase 1),low cell count without drug only,0.56,-4.72,5.62,0.99
Ints10 (integrator complex subunit 10),no change with or without drug,1.01,0.51,0.79,1.03
"Kcnk18 (potassium channel, subfamily K, member 18)",no change with or without drug,-0.56,-1.52,0.56,0.89
Krtap19-1 (keratin associated protein 19-1),low cell count with doxorubicin only (active),-2.92,-0.84,-2.47,0.68
Dag1 (dystroglycan 1),no change with or without drug,0.11,0.84,-0.34,0.95
Zfp688 (zinc finger protein 688),no change with or without drug,0.56,1.18,-0.11,0.99
Kcnn3,no change with or without drug,0,-0.84,0.67,0.94
Gpc6 (glypican 6),no change with or without drug,-1.8,-0.67,-1.35,0.78
Ubfd1 (ubiquitin family domain containing 1),no change with or without drug,-0.22,0.34,-0.34,0.92
Pah (phenylalanine hydroxylase),no change with or without drug,-0.79,-0.17,-0.56,0.87
Cyb561d2 (cytochrome b-561 domain containing 2),no change with or without drug,1.35,-0.17,1.69,1.06
Ccdc87 (coiled-coil domain containing 87),high cell count without drug only,1.91,3.54,-0.22,1.11
Foxd2 (forkhead box D2),no change with or without drug,0.9,1.85,-0.22,1.02
"Radx (RPA1 related single stranded DNA binding protein, X-linked)",no change with or without drug,0.34,0.17,0.34,0.97
4930579K19Rik (RIKEN cDNA 4930579K19 gene),no change with or without drug,-0.34,-1.52,0.9,0.91
Yaf2 (YY1 associated factor 2),high cell count without drug only,-0.45,2.53,-1.8,0.9
Trpv6,no change with or without drug,0.79,1.52,-0.11,1.01
Klhl23 (kelch-like 23),no change with or without drug,-0.67,-0.84,0,0.88
Mllt11,no change with or without drug,-0.9,0,-0.79,0.86
Stard3nl (STARD3 N-terminal like),no change with or without drug,1.35,0.51,1.12,1.06
Pak5 (p21 (RAC1) activated kinase 5),no change with or without drug,-0.22,-1.35,0.9,0.92
"Fam220a (family with sequence similarity 220, member A)",no change with or without drug,1.57,0.34,1.46,1.08
Srsf2 (serine and arginine-rich splicing factor 2),no change with or without drug,0.22,-1.18,1.24,0.96
Ccdc69 (coiled-coil domain containing 69),no change with or without drug,-0.22,1.18,-0.9,0.92
BC061237 (cDNA sequence BC061237),no change with or without drug,-0.56,-0.17,-0.34,0.89
